Experimental data published in paper PMC6135800, “STAT3-coordinated migration facilitates the dissemination of diffuse large B-cell lymphomas” (Nature Communications, 2018).
These are yes or no findings as the source states them, for the method shown. In cells and extracts the contact can be indirect. Some results given as binding are weak or reduced against the parent protein; the word gives no strength. Tags and fused reporters may be left off the sequences shown.

The chains behind the UniProt entries cited, without tags or fusion partners.
UniProt P61586: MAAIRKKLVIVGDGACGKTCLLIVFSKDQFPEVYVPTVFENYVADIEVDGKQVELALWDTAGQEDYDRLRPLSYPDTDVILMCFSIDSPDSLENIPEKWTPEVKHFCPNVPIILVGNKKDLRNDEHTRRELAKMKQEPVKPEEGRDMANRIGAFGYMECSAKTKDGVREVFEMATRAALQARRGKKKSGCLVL

T1: RhoGDIγ (transfected into HT cells stably expressing FLAG-RhoA) (UniProt Q99819)
T1 sequence: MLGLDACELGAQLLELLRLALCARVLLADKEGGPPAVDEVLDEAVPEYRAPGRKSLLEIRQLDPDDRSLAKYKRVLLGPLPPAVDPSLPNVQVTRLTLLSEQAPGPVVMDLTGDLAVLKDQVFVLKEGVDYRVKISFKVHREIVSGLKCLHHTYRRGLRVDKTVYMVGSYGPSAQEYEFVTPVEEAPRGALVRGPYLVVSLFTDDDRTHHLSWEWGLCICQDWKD

B1: RhoGDIγ (transfected into HT cells stably expressing FLAG-RhoA) (protein, UniProt Q99819 1-225)
chain: T1 sequence
B2: GST-RhoH (natural protein, UniProt Q15669 1-191, looked up)
chain: MLSSIKCVLVGDSAVGKTSLLVRFTSETFPEAYKPTVYENTGVDVFMDGIQISLGLWDTAGNDAFRSIRPLSYQQADVVLMCYSVANHNSFLNLKNKWIGEIRSNLPCTPVLVVATQTDQREMGPHRASCVNAMEGKKLAQDVRAKGYLECSALSNRGVQQVFECAVRTAVNQARRRNRRRLFSINECKIF
notes: RhoH; the only GST vector named is pEBG-RhoH, made by inserting full-length cDNAs (RhoH: NM_001278369); also called GST-tagged RhoH; source: E. coli DH5α, IPTG induction, purified (glutathione-Sepharose, eluted with reduced glutathione)

Experiments:
FLAG-RhoA = FLAG-RhoA (UniProt P61586); assay: co-IP; HT cells stably expressing FLAG-RhoA, transfected with the indicated plasmids; 1% Nonidet P-40 lysis buffer (50 mM Tris-HCl pH 7.4, 150 mM NaCl, 5% glycerol, 1 mM Na3VO4); antibody 2 h at 4 °C, then Protein A/G beads 2 h; western blot
[1] = biological target: T1, RhoGDIγ (transfected into HT cells stably expressing FLAG-RhoA); assay: as above

binding (FLAG-RhoA)	binding [1]	Binder
binds		B1
	binds	B2
